PubChem BioAssay AID1159584 | Peter MacCallum Cancer Centre | 2016
Here is one part, drawn at random, of about 18,000 reagents. Further read-outs or replicates are left out here. The record does not give: the amount of reagent, the time to read-out.

- Purpose: 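Knock-downs that harm CDH1-null cells more than parental MCF10A cells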 (primary screen)
- Cell system: human MCF10A breast epithelial cells, parental and CDH1-null
- Reagents: siRNA against human genes
- Measured: 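ATP luminescence (CellTiter-Glo) viability per line relative to mean mock wells over all plates, and the ratio of CDH1-null to parental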
- Scale: CDH1-null / parental viability ratio: higher = CDH1-null cells survive relatively better than parental

Target gene	CDH1-null / parental viability ratio
PPP1R21	0.84
CDC16	0.88
NADSYN1	1.02
ZMYND8	0.86
PCDHB16	1.33
ACTG2	0.88
FBXO3	0.94
THBD	1.02
APOBEC2	0.89
FUNDC1	1.03
KLHL34	0.81
NPC1L1	0.63
ZFP36L2	1.2
MSTO1	0.96
THBS2	1.21
LAMC3	1.12
POU3F3	1.15
TCF7L1	1.23
IHH	1.12
DUX5	1.11
SLC4A2	0.93
MRAS	1.02
ANKRD16	0.78
KLHDC3	1.7
ISCA1P1	0.82
TBCEL	1.19
CLK4	1.07
NINL	0.74
KHDC3L	0.87
RMI1	0.97
PLA2G2F	1.27
ARHGEF35	2
MRRF	1.05
CEP170B	1.2
HTR3D	1.05
SOHLH2	1.07
GTF2IRD2B	1.2
TP53TG3	1.06
ZSCAN18	0.98
ARMC7	0.88
KCNQ1	1.15
HNRNPA1L2	0.98
TMED1	0.98
GARIN1A	1.47
MAP2K5	1
ZNF512B	0.89

5 of these entries, reformatted:
Target gene | CDH1-null / parental viability ratio
DUX5 | 1.11
SLC4A2 | 0.93
MRAS | 1.02
ANKRD16 | 0.78
KLHDC3 | 1.7
